Among the data in PMC3327102 are binding values, retold here.

By UniProt entry, the sequences of proteins in these tests, tags left out. Residues count along the entry.
UniProt P29317, residues 24-537: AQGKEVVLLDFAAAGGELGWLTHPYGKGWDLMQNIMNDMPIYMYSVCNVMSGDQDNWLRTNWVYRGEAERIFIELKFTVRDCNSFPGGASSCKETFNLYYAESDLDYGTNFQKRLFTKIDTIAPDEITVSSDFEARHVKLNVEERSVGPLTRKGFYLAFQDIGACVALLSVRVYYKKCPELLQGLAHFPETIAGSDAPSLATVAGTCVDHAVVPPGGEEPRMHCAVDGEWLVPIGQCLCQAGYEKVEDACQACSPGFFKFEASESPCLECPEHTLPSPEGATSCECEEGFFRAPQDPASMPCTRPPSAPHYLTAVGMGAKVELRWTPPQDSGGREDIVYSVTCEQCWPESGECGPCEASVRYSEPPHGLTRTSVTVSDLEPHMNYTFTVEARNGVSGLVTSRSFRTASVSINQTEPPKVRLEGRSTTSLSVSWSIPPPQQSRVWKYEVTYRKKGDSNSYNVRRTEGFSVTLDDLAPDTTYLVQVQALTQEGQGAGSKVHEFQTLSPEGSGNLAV
UniProt P11362, residues 22-376: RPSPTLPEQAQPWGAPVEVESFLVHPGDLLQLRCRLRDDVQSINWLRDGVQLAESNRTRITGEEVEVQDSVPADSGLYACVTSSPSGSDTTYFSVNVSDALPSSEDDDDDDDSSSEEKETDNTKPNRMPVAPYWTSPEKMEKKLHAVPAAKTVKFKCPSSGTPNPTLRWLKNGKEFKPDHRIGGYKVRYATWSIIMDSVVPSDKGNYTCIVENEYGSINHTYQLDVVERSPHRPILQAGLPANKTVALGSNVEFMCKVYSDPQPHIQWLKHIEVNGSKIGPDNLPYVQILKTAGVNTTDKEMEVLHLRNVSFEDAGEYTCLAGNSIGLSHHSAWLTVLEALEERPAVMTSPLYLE

These are yes or no findings as the source states them, for the method shown. In cells and extracts the contact can be indirect. Some results given as binding are weak or reduced against the parent protein; the word gives no strength.

Holding throughout (experiment): co-IP; immunoprecipitation; bait, cells and conditions not told (meeting abstract)
In experiment [1] the target is EphA2 extracellular domain (UniProt P29317).
The target in experiment [2] is EGFR (UniProt P00533).
Experiment [3] addresses FGFR1 extracellular domain (UniProt P11362).
Experiment [4] concerns the target HER2 extracellular domain (UniProt P04626).

B1: OPCML (protein, UniProt Q14982 28-322)
chain: GVPVRSGDATFPKAMDNVTVRQGESATLRCTIDDRVTRVAWLNRSTILYAGNDKWSIDPRVIILVNTPTQYSIMIQNVDVYDEGPYTCSVQTDNHPKTSRVHLIVQVPPQIMNISSDITVNEGSSVTLLCLAIGRPEPTVTWRHLSVKEGQGFVSEDEYLEISDIKRDQSGEYECSALNDVAAPDVRKVKITVNYPPYISKAKNTGVSVGQKGILSCEASAVPMAEFQWFKEETRLATGLDGMRIENKGRMSTLTFFNVSEKDYGNYTCVATNKLGNTNASITLYGPGAVIDGVN
For the molecule B1, the binding result is “binds” in experiment [1], “no binding” in experiment [2], “binds” in experiment [3] and “binds” in experiment [4].
